This test has as its target T1, FLAG-KCTD10 (wild type) (UniProt Q9H3F6).
T1 sequence: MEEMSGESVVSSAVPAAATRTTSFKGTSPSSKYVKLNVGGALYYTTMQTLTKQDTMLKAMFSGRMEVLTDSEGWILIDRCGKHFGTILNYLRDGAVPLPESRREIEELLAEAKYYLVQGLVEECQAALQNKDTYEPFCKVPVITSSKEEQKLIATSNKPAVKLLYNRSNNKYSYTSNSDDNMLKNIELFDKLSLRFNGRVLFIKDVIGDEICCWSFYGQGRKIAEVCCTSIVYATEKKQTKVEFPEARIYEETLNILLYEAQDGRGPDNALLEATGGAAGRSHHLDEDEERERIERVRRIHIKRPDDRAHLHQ
As to the kind of experiment: co-IP; HEK293 cells transfected with SLC7A11 wild type, MT-1 or MT-2 and KCTD10 ('indicated plasmids'), IP-IB (Fig. 2D).

By UniProt entry, the sequences of proteins in these tests, tags left out. Where a name states a change or a piece, a line headed by the entry shows the natural chain unless it says otherwise.
UniProt Q9UPY5: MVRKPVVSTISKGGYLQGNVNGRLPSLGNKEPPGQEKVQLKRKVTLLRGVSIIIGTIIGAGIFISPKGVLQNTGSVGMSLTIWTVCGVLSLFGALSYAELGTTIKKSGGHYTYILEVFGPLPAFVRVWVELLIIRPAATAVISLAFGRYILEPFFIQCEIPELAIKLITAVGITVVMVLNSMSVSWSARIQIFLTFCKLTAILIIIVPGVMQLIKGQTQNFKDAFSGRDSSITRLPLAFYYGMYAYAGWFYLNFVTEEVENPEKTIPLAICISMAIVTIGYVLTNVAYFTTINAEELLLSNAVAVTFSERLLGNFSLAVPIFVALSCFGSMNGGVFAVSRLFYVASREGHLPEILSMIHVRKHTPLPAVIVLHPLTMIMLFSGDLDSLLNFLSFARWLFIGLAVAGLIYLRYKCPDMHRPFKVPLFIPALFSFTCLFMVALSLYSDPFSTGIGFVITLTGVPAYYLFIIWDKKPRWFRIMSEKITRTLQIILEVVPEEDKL

No constants are given. Whether binding was seen depends on the method and setting. Binding seen in cells or lysates may run through a third protein. Some binding calls cover weakened binding; strength is not graded here. Tags and fused reporters may be left off the sequences shown.

For the substance “MT-2: SLC7A11-44~501 (from UniProt Q9UPY5 44-501) (domain or fragment)”, the binding result is given as “no binding”.

Regarding “MT-1: SLC7A11-1~470 (from UniProt Q9UPY5 1-470) (domain or fragment)”, the binding entry is listed as “binds”.

Values taken from PMC11252818.
